Results are given in words; binding and its absence hold for the method and conditions named. Binding seen in cells or lysates may run through a third protein. Some entries that bind do so weakly or less than the wild type.
Assays:
[1] = molecular target: GFP–RAPH1^F2 (RAPH1 aa 535–868) (UniProt Q70E73); test: co-IP; GFP-Trap beads, lysates of MDA-MB-231 cells expressing GFP-tagged bait; 20 mM HEPES pH 7.4, 75 mM NaCl, 2 mM EDTA, 1% NP-40; 1 h at 4°C; endogenous MYO10 detected by western blotting
[2] = molecular target: full-length RAPH1–GFP (UniProt Q70E73); test: as above
[3] = molecular target: RAPH1–GFP lacking the F5 fragment (RAPH1^Δ536-587) (UniProt Q70E73); test: as above
[4] = molecular target: GST–RAPH1^F2 (RAPH1 aa 535–868) (UniProt Q70E73); test: pull-down; recombinant GST–RAPH1^F2 or GST alone on beads, in MDA-MB-231 cell lysates; MYO10 detected by western blotting; only the target purified

Sequences of proteins named here, by UniProt entry; tags and fusion partners are left off. A change or cut given only in a name is not applied to a line headed by its entry. A line that says so, or that is headed by a name, gives the form on record, which may keep a tag or linker. Residues count along the entry.
UniProt Q70E73: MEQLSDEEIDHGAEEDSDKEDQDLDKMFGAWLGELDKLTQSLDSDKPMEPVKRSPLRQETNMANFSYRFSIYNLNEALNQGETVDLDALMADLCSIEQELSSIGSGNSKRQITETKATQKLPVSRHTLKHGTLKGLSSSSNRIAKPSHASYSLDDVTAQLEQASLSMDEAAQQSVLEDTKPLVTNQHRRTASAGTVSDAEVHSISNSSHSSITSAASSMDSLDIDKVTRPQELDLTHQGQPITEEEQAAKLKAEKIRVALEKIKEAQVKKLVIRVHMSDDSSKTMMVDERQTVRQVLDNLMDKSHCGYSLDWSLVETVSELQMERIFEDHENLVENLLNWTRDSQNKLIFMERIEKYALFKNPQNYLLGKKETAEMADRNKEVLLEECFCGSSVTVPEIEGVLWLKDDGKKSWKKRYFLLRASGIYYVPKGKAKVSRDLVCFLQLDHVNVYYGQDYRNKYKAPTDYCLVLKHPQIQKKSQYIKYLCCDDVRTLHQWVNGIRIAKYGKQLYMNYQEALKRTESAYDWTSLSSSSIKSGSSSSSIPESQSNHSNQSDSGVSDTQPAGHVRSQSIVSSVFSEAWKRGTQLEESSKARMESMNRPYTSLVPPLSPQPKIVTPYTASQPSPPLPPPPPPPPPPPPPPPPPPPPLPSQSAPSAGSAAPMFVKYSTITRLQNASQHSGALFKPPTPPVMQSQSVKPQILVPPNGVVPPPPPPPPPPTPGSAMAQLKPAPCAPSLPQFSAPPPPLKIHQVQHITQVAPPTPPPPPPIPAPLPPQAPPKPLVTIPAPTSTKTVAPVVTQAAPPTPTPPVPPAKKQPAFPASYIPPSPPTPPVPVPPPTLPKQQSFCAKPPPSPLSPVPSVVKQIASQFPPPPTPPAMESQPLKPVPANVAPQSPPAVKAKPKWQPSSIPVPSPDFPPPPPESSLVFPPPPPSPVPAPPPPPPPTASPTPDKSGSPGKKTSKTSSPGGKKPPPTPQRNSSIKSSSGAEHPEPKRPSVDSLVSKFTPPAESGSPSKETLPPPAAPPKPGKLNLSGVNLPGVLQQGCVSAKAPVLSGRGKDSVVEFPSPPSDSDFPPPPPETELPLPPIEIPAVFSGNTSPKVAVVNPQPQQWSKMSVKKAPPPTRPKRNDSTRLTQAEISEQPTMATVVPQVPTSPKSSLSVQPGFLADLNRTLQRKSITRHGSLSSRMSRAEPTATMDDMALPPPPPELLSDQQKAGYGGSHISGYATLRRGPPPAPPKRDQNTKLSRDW
GST–RAPH1^F2 (RAPH1 aa 535–868): residues 535-868 of Q70E73
RAPH1–GFP lacking the F5 fragment (RAPH1^Δ536-587) (Q70E73, form named): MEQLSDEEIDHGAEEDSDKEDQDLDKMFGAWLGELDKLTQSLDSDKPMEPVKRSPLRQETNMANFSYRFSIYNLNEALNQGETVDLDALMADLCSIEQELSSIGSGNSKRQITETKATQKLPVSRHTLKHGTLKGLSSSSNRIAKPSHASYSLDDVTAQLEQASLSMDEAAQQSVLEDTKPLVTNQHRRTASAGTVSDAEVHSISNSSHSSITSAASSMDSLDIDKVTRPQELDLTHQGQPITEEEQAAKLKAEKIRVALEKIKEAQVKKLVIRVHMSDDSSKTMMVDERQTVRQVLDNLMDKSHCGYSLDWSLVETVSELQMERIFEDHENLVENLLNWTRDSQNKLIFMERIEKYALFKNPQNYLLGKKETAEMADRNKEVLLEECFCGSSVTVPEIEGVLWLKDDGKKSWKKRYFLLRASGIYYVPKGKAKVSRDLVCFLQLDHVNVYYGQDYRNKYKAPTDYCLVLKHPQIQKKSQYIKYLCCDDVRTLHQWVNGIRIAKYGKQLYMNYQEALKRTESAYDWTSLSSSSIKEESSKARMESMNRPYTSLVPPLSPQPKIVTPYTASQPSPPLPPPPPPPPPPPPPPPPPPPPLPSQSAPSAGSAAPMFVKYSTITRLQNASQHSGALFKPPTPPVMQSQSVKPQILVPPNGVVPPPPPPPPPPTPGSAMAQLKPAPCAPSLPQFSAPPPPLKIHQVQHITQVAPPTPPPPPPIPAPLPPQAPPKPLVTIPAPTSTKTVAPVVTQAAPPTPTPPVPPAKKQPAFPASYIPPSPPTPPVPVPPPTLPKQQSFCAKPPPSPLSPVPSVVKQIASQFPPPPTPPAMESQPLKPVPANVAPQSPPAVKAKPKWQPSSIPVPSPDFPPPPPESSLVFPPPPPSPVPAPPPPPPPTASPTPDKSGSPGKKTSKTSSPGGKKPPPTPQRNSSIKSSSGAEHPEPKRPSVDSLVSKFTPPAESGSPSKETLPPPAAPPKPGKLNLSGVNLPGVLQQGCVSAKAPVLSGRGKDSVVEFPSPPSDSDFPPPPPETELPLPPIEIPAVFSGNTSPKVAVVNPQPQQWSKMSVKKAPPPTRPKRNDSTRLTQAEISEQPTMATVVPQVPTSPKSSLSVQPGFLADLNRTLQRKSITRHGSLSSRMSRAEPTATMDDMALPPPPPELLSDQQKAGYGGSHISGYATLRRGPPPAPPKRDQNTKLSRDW
UniProt Q9HD67: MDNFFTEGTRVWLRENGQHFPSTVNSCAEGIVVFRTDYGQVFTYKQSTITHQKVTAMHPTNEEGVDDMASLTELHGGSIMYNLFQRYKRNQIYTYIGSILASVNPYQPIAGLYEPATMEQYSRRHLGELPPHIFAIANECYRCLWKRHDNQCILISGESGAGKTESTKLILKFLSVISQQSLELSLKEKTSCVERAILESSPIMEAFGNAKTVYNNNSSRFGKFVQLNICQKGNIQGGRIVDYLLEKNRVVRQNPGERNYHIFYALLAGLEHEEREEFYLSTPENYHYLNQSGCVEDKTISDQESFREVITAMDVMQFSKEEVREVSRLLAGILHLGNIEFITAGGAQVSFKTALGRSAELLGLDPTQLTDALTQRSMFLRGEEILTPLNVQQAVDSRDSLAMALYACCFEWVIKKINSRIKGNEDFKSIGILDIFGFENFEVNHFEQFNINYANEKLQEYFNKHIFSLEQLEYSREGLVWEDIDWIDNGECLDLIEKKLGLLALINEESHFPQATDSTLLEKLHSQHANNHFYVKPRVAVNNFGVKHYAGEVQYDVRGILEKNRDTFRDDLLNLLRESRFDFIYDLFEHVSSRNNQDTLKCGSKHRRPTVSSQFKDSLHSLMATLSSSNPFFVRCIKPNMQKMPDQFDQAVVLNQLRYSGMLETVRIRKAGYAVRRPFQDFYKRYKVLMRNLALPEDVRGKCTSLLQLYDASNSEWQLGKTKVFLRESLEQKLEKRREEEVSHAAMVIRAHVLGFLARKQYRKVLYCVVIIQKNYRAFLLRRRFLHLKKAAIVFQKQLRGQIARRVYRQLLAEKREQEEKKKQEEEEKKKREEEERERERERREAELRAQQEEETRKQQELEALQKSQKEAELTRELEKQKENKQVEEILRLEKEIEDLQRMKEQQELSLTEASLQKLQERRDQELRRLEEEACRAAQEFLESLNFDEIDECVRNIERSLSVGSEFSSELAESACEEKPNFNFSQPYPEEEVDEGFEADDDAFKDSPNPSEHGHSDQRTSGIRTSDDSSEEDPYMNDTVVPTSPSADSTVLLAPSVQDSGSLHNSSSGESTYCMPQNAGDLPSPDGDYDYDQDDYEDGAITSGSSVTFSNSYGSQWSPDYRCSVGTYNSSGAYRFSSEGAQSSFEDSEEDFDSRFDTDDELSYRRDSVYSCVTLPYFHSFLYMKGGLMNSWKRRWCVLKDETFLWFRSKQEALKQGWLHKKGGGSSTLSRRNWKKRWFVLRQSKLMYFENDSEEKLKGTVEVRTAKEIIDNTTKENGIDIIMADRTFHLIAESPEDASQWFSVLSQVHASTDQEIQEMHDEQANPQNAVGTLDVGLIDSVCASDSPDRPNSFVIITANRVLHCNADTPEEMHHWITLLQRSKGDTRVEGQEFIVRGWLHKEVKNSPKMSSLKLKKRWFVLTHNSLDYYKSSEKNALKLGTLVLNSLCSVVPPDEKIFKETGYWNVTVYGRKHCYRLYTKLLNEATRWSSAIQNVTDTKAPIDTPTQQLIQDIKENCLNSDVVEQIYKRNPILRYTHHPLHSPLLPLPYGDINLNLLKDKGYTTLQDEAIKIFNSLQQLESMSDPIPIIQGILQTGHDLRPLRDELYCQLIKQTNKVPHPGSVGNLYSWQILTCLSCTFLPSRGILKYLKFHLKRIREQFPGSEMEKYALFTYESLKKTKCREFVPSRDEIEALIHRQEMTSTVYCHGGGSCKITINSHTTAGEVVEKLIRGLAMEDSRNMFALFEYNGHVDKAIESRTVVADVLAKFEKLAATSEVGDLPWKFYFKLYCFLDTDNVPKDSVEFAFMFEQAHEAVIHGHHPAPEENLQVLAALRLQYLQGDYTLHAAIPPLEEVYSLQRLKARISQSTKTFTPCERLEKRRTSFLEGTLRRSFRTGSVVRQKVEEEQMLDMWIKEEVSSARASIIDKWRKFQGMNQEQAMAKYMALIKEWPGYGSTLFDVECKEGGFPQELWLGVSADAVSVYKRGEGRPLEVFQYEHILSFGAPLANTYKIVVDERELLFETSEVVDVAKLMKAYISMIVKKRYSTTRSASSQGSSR

- binding [1]: binds
- binding [2]: binds
- binding [3]: binds weakly
- binding [4]: binds
Substance: Myosin-X (MYO10), endogenous in MDA-MB-231 cells (from UniProt Q9HD67 1-2058)
